Test results taken from PubChem BioAssay AID1508600 (Functional Genomics Laboratory (NCATS/FGL), 2020).
In all, about 53,000 sequences went through this assay and about 3,700 (7%) were called active.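 The calls were made as follows: active = gene knockdowns whose robust z-score for IL-1 alpha signal is at least 2 or at most -2, so actives lie on both sides; inactive = the rest.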 Some of the results follow.

Assay: Components of the Cytosolic LPS Sensing Pathway: Gene Identification via Genome-wide siRNA Screen;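 also: robust z of the log signal after scaling to non-targeting control siRNA wells of the plate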
Settings: RAW264.7 macrophages, IL-1a HTRF, actives lie on both sides, screened at 100 nM (by protocol), cells primed 5 h with Pam3CSK4 first
In short: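 Using IL-1a HTRF as read-out, the screen measured release from RAW264.7 cells after 48h siRNA knockdown (100 nM), 5 h Pam3CSK4 priming and 24 h cytosolic LipidA. Values were expressed relative to negative-control wells as robust z-scores.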

| Sequence | z-score |
| --- | --- |
| GGCCUUACAACAAAAUCUGTT against Chd9 | inactive: 0.898 |
| CCCACGGAGGCAAUAAAUATT against Crygn | inactive: -0.155 |
| GCUGUGUACUCUGCCUUGUTT against Olfr338 | inactive: 0.475 |
| GCCCAUUGUUACCUUGUACTT against Klb | active: -2.06 |
| GCGUAUACCAUGCAGAUAUTT against Sigmar1 | inactive: 1.05 |
| GGAAAUUGAUCAUUGACCATT against Ccdc65 | inactive: -0.683 |
| GGAAAAGACAAGCAUACGATT against Ano6 | inactive: -0.233 |
| GGAGACCUUCAGCUUGGAATT against Zfp260 | inactive: 0.0537 |
| GAGUCUAGACAGUAUGUUCTT against Swi5 | inactive: 1.15 |
| GGAUCAUUUGCUUGACACUTT against Xkrx | inactive: 1.08 |
| GCAUAGUGACCAUGGAUAATT against Olfr807 | inactive: 0.95 |
| GUGUAUCCCAGGCUAUCACTT against Vmn1r19 | inactive: -1.17 |
| GGAAACACCGGAAAUAAUCTT against Akap12 | inactive: 1.07 |
| GGCCUUGUGUUUAGAAAACTT against Piwil2 | inactive: -0.789 |
| CCAUCGUAGCAGAUCUUUCTT against Aaas | inactive: -1.08 |
| GCAGUUACUUAUCAUCUGGTT against Inca1 | inactive: 0.00859 |
| CGCAGCUUUCUAUACUGGCTT against Ngf | active: 2.41 |
| GGAAAUUUCAGUCGUAGUATT against Mgat4c | inactive: 0.642 |
| GGGAUUUCAAAUAAUUUGCTT against Nudt4 | inactive: 0.817 |
| GGAGAAACACUAUUUUGGATT against Ginm1 | inactive: 0.404 |
| GCAUCAGUAGAAACCCACATT against Tmigd3 | inactive: 0.872 |
| GGUCACUUUCAACCUCAUATT against Plin5 | inactive: -0.989 |

| Sequence | z-score |
| --- | --- |
| GGUUCUACAGAUGUUUUCUTT against Tnfrsf22 | active: 3.84 |
| GGCAGCGCAAUGGAUUAGUTT against Chrng | inactive: -0.697 |
| GGCCUUAAUUUAGUUGGUATT against Fbxo2 | inactive: -0.934 |
| GGACUUGGCUCCUUACCUGTT against Gcn1 | inactive: -0.536 |
| GGAAUCAGCUCUUUGAGCGTT against Capn5 | inactive: -0.141 |
| GGACAAUAAAAGGAAAGACTT against Brd7 | inactive: -1.46 |
| GGAGAGCUACGACUAUCUCTT against Vps29 | inactive: -0.299 |
| GGCAAACAUGAAGAGAAGCTT against Hspb8 | inactive: 0.0665 |
| GGAAGCUGAAGAAGACCUGTT against Reg1 | inactive: -0.51 |
| GGUGACAGGAAAGUUCUGUTT against Gsdmc2 | active: 2.07 |
| GCAUCUGUGAAAAGUGAACTT against Agtrap | inactive: 0.0647 |
| GGCAGUACUCUUCCUCACUTT against Tmem198 | inactive: -0.601 |
| GCUAAUAAAGACGUAGCGUTT against Nup188 | inactive: -0.9 |
| GGUUGUGACAAUGUGAUCCTT against Coro1a | active: -2.22 |
| GGCGCAUAAUGGGAGAAGCTT against Alox5ap | inactive: -0.283 |
| GGCAAUAACAUCCAUAUGUTT against Smyd4 | inactive: -0.628 |
| CGUAUGUGCCUUACAUGCUTT against Pomgnt2 | inactive: 1.49 |
| GGCAAUAUCCAGGAGACAGTT against Gkn2 | inactive: 0.263 |
| CCAUUCUGAUACUAAGCAATT against Tas2r134 | inactive: -0.125 |
| GGACAGAAAUGUUUUUUGGTT against Robo4 | inactive: -0.271 |
| GGCCAGAGUCUGGUUGAAUTT against Entpd2 | inactive: 1.35 |
| CCCAUCUCUAUCUUGGCCGTT against Chpf | inactive: -0.105 |

| Sequence | z-score |
| --- | --- |
| GCACAAGAUGUGAAGAUUATT against Tmem109 | inactive: -0.639 |
| GCUAACAAAGAGCCUGGCATT against Trim46 | inactive: -0.831 |
| GGAAGAAGGUACAUUUCAGTT against Ankrd42 | inactive: 0.362 |
| GGCUUCUUCUACUUUCAAGTT against Slc27a5 | inactive: -0.554 |
| GGACAUUAUUCCAUCUAAGTT against Heatr3 | inactive: 0.994 |
| CGAAUACAUCAUGUCAAAATT against Chek2 | inactive: 0.929 |
| CCGCCUUUCUGUGAGAUGCTT against Rbm11 | inactive: -0.635 |
| GGCCUGCAUGGAACAAAUGTT against Rxfp4 | inactive: -0.404 |
| GCGAAGUGCCUGCUAUUCUTT against Cc2d1b | inactive: 1.16 |
| CCUAGGUUUGAAGACUCCCTT against Asphd2 | active: -2.03 |
| GCCGUGCAACACUUCUACATT against Esrrb | inactive: -0.471 |
| GGAACAUGGAGAAUGUCUATT against Iqca | inactive: 0.733 |
| GGGAAGAAGAGAUUCUGAUTT against Cep250 | inactive: -1.53 |
| CGCGUAUCUGACCAGGUCATT against Ermard | inactive: 0.889 |
| GGAACUAUUUUUUACCCAATT against Dclre1a | inactive: -0.497 |
| GGAGCUCACCACAUCCCUATT against Rundc3a | inactive: -0.206 |
| GGUCUUACAUCUGGUUUCCTT against Rapgef5 | inactive: -0.181 |
| GGUGUAUCAGAGGCAGAUUTT against AY358078 | inactive: -0.719 |
| GGGAAAUCAGUUUUACAAATT against Chl1 | inactive: 0.265 |
| GCUUGAGUUGGACCUUCACTT against Tchp | inactive: 0.547 |
| GGCAUCCUGUUGAAACUGATT against Vezt | inactive: -0.962 |
| GGAGGAGGAGACCAUCAUGTT against Dpf1 | inactive: -0.988 |

| Sequence | z-score |
| --- | --- |
| GGAAAUGAGGAUGAGGUCCTT against Iyd | inactive: 2 |
| CGGAUGUGGGCAUUCGUUATT against Fbxl7 | inactive: 0.421 |
| GCUGAAGUCUCUUCAAUGCTT against Trappc6b | inactive: -0.71 |
| CCUCACCGUAGUGAUGUUGTT against Olfr257 | inactive: 0.41 |
| CGAUCAUCGGCAUGUAUACTT against Gm5134 | inactive: 0.233 |
| GGAAACAUUUGUCUUUUGCTT against Eif2b5 | inactive: 0.428 |
| GCGGUCUAAGUCCUUUAGCTT against Limd2 | inactive: 1.09 |
| GCUCACUGCUACAAAUACCTT against Prss2 | inactive: -1.82 |
| GGCUUAGUCAGUUCUCUCGTT against Sdf2 | inactive: 0.447 |
| CGGCCUCCAUGUUAAGAUATT against Csf2rb2 | inactive: -0.249 |
| CGUGUCAUACAGGUGUGGUTT against Lhx8 | active: 2.11 |
| CGGCAACUUUCUGAACAUCTT against Nfix | inactive: 0.204 |
| CGUAGGUUCCUCUUACAUGTT against Alkbh8 | inactive: 0.161 |
| CCUAUUACUCUCAAGGUUCTT against Tti2 | inactive: 0.245 |
| GGAGAACAGCAGCCUUUGUTT against Ankrd13a | inactive: -0.0756 |
| GCACAGAUUCCAUUAAAGATT against Rhbdl3 | inactive: 0.168 |
| GGAGAGAUAUCUUUGGUGGTT against Slc27a4 | inactive: 0.389 |
| GGCUGAAAGUGAAGAAACGTT against Srp68 | active: -2.11 |
| GCUGCUCAAGUUGUGGUGATT against Sord | inactive: 1.56 |
| GGAGGAAGUGAACAAAAUGTT against Afp | inactive: -0.701 |
| GGGUAUACGGCAUUUCCUATT against Rad9b | inactive: -0.983 |
| GGCAAUCUUAUACUUAUGCTT against Mmachc | inactive: 0.307 |

| Sequence | z-score |
| --- | --- |
| GGCCUGAUGGAAUUAUAGATT against Wdr31 | inactive: -0.278 |
| GCACGAAAUCAGCAAUGAATT against Tmc8 | inactive: -1.08 |
| GGUGGCAGACAUUUCAACATT against Ifi27 | inactive: 1.54 |
| GGUACAGAGAUCUAAGACUTT against Opn4 | inactive: 1.17 |
| UGAAGGCAAAUCACUCUUUTT against Olfr181 | inactive: -0.042 |
| CGAAAGGUUUAUCUGUUAGTT against Pwp1 | inactive: -1.08 |
| CCAGAGAUUCCAACUUAAATT against Tcp11l1 | inactive: -0.398 |
| GGCCAAUAAAGACUGGUUUTT against Rps15 | inactive: 1.69 |
| UAACUGGGCUCACGUUGACTT against Pou2f1 | inactive: 0.47 |
| CCAAUUCUCGAAUCAUUGCTT against Olfr561 | inactive: 1.36 |
| GGUCAAUUUUAGAGAGAUCTT against Eloc | inactive: 0.0886 |
| GGCUAUUUGAGAACAGGCATT against Cxcl13 | inactive: 0.00725 |
| GGAGAUUCUUUCUUUGAUGTT against Cep43 | inactive: -0.724 |
| GGCUUUUCAGACCAAGCUUTT against 3830406C13Rik | inactive: 0.322 |
| CGAGUUUCAUCGAACGUGUTT against Rnf43 | inactive: 0.593 |
| ACUGGGUUCUUAGUUGUAUTT against Olfr811 | inactive: 0.234 |
| GGAGAAAGAAAGCAGUUUUTT against 2310067E19Rik | inactive: 1.55 |
| GGACGUGACAGACAUUAUUTT against Htr5b | active: -2.81 |
| GGAUGAAAAUGAGUGGAAATT against Cdv3 | inactive: -1.51 |

Shown bar-delimited: part of the list above.
Sequence | z-score
CGGCAACUUUCUGAACAUCTT against Nfix | inactive: 0.204
CGUAGGUUCCUCUUACAUGTT against Alkbh8 | inactive: 0.161
CCUAUUACUCUCAAGGUUCTT against Tti2 | inactive: 0.245
GGAGAACAGCAGCCUUUGUTT against Ankrd13a | inactive: -0.0756
GCACAGAUUCCAUUAAAGATT against Rhbdl3 | inactive: 0.168
GGAGAGAUAUCUUUGGUGGTT against Slc27a4 | inactive: 0.389
GGCUGAAAGUGAAGAAACGTT against Srp68 | active: -2.11
GCUGCUCAAGUUGUGGUGATT against Sord | inactive: 1.56
GGAGGAAGUGAACAAAAUGTT against Afp | inactive: -0.701
GGGUAUACGGCAUUUCCUATT against Rad9b | inactive: -0.983
GGCAAUCUUAUACUUAUGCTT against Mmachc | inactive: 0.307
GGCCUGAUGGAAUUAUAGATT against Wdr31 | inactive: -0.278
GCACGAAAUCAGCAAUGAATT against Tmc8 | inactive: -1.08
GGUGGCAGACAUUUCAACATT against Ifi27 | inactive: 1.54
GGUACAGAGAUCUAAGACUTT against Opn4 | inactive: 1.17
UGAAGGCAAAUCACUCUUUTT against Olfr181 | inactive: -0.042
CGAAAGGUUUAUCUGUUAGTT against Pwp1 | inactive: -1.08
CCAGAGAUUCCAACUUAAATT against Tcp11l1 | inactive: -0.398
GGCCAAUAAAGACUGGUUUTT against Rps15 | inactive: 1.69
UAACUGGGCUCACGUUGACTT against Pou2f1 | inactive: 0.47
CCAAUUCUCGAAUCAUUGCTT against Olfr561 | inactive: 1.36
GGUCAAUUUUAGAGAGAUCTT against Eloc | inactive: 0.0886
GGCUAUUUGAGAACAGGCATT against Cxcl13 | inactive: 0.00725
GGAGAUUCUUUCUUUGAUGTT against Cep43 | inactive: -0.724

Exported with bars between the fields: part of the list above
Sequence | z-score
GGCUUUUCAGACCAAGCUUTT against 3830406C13Rik | inactive: 0.322
GGAGAAAGAAAGCAGUUUUTT against 2310067E19Rik | inactive: 1.55
